According to the supplement of paper PMC10849652:
The other results are listed elsewhere or left out.

Chains of the proteins cited; added tags and fusions are not shown. Lines headed by an entry give the natural chain unless they say otherwise; changes in a name come on top.
UniProt P80511: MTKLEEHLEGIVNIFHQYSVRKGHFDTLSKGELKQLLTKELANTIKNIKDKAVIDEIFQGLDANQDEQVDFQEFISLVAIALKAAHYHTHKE
UniProt Q9NQC3: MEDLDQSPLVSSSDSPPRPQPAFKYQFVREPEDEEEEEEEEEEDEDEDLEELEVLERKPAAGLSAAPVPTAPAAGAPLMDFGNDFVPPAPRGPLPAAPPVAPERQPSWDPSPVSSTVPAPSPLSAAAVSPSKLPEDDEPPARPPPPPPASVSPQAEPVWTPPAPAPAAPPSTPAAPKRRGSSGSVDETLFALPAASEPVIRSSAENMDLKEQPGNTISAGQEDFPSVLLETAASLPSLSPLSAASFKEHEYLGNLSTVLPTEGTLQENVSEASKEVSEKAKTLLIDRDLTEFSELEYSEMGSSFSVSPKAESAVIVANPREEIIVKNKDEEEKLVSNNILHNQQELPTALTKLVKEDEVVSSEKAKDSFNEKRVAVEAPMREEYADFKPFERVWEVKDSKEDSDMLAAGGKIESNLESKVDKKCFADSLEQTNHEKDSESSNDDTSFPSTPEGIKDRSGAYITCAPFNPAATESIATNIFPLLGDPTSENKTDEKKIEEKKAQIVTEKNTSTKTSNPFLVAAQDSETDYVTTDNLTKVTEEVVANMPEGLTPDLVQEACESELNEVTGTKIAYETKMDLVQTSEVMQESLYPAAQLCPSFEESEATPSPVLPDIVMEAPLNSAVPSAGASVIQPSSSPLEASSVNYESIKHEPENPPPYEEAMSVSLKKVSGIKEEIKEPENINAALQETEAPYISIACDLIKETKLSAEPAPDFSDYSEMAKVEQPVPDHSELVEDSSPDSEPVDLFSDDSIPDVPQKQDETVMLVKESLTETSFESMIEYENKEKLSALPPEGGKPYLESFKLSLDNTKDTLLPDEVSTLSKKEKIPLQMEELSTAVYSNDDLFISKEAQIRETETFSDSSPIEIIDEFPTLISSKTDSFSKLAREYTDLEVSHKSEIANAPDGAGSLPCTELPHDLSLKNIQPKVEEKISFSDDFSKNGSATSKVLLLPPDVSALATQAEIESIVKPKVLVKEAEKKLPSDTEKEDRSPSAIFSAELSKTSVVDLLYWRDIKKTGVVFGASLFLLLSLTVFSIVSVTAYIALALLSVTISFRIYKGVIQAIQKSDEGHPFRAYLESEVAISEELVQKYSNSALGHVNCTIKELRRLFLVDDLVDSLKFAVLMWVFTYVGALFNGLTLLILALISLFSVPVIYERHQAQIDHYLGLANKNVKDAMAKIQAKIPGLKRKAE
UniProt P10301: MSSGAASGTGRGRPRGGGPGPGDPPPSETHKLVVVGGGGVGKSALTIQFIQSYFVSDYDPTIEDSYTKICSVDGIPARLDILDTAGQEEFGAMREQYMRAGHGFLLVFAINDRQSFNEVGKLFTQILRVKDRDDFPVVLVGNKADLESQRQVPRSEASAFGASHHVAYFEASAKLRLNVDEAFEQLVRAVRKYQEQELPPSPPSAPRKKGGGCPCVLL
UniProt O95059: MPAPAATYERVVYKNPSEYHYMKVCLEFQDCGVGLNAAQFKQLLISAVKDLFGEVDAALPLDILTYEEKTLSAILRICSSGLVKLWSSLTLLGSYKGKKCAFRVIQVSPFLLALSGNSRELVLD
UniProt P62070: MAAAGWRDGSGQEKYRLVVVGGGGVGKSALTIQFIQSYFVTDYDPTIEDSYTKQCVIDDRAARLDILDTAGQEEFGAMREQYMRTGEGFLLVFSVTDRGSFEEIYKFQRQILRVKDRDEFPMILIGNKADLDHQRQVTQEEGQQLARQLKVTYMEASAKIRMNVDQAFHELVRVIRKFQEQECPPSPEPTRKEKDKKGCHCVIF
UniProt Q8N2Y8: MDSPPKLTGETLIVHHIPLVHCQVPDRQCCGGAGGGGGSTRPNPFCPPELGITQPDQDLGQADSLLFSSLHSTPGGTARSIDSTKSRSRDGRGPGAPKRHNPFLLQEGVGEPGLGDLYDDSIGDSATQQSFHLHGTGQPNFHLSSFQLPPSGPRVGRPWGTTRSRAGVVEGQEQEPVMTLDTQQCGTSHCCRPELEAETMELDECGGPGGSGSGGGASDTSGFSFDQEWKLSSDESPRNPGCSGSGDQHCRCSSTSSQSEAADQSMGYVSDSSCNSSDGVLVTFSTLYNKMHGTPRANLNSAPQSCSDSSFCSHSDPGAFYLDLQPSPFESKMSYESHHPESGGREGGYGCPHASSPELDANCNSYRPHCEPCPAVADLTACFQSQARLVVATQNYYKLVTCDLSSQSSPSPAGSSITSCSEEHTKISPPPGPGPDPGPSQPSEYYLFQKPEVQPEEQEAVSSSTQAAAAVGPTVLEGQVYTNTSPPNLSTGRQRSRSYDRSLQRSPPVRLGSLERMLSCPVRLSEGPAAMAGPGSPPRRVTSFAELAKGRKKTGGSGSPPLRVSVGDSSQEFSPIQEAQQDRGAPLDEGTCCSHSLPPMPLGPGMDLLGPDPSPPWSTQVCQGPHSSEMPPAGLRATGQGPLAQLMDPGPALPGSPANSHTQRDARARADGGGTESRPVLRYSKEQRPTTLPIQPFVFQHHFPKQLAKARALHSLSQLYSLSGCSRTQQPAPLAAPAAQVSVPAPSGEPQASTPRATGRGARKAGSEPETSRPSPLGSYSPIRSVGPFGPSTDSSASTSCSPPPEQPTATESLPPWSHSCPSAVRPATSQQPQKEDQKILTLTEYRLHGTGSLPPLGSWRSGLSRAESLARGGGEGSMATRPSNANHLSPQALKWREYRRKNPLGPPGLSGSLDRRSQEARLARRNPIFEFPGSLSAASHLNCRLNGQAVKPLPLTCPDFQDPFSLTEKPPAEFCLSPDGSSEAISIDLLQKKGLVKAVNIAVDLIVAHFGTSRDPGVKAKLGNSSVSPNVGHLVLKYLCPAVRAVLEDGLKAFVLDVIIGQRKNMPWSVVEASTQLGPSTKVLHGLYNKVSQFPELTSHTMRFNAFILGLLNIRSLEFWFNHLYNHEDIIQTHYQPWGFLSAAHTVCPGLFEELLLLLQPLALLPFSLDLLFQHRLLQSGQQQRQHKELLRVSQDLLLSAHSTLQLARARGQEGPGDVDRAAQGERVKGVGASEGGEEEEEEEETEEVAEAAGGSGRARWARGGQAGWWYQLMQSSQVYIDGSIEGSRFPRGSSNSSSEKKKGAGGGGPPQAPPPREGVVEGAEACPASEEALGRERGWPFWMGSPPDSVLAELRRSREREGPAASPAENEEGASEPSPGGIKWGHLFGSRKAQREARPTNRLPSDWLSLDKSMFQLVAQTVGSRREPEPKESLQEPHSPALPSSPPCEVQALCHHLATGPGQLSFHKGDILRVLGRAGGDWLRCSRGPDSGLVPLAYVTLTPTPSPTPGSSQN
UniProt Q96T51: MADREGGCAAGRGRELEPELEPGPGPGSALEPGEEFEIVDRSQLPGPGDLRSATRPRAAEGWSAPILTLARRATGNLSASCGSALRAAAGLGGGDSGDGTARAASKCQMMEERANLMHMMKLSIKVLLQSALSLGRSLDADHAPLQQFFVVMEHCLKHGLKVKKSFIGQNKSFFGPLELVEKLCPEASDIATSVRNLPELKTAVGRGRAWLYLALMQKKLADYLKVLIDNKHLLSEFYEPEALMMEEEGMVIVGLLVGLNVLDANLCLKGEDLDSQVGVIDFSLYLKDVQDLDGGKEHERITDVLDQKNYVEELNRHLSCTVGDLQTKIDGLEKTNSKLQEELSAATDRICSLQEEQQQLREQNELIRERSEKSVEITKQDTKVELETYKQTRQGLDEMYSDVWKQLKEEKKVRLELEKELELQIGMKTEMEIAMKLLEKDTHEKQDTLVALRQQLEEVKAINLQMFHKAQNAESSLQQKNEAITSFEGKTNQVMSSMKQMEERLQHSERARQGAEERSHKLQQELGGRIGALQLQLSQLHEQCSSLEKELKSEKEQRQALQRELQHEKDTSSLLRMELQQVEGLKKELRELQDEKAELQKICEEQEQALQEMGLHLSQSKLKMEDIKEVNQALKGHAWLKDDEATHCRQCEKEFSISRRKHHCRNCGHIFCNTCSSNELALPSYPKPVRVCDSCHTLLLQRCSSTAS
UniProt Q6NW29: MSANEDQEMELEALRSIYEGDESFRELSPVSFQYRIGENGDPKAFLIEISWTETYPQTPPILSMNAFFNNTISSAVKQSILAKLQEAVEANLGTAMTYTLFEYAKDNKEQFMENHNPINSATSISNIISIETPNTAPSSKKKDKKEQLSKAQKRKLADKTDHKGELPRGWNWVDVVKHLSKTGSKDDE
UniProt O75582, whole entry, looked up: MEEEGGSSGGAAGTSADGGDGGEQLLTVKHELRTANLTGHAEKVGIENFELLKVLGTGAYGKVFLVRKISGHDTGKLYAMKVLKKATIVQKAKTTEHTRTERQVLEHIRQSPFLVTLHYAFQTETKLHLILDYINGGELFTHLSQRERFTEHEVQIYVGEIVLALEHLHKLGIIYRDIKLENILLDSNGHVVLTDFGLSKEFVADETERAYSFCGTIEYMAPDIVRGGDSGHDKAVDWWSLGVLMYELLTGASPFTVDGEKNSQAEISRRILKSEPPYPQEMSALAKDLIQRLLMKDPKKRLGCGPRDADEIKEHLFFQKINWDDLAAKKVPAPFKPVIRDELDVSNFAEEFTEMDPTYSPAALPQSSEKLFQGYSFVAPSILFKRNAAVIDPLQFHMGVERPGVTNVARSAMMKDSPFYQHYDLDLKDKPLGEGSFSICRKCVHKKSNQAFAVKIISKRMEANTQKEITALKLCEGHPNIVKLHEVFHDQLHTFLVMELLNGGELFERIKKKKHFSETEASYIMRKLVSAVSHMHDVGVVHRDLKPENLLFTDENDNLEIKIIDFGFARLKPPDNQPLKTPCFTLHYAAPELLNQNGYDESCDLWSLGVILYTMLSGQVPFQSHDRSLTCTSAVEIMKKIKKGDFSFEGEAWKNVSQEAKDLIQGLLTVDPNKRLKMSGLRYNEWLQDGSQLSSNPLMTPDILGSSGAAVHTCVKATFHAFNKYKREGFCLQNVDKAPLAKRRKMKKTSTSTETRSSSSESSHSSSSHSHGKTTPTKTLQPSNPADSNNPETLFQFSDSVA
UniProt O95197: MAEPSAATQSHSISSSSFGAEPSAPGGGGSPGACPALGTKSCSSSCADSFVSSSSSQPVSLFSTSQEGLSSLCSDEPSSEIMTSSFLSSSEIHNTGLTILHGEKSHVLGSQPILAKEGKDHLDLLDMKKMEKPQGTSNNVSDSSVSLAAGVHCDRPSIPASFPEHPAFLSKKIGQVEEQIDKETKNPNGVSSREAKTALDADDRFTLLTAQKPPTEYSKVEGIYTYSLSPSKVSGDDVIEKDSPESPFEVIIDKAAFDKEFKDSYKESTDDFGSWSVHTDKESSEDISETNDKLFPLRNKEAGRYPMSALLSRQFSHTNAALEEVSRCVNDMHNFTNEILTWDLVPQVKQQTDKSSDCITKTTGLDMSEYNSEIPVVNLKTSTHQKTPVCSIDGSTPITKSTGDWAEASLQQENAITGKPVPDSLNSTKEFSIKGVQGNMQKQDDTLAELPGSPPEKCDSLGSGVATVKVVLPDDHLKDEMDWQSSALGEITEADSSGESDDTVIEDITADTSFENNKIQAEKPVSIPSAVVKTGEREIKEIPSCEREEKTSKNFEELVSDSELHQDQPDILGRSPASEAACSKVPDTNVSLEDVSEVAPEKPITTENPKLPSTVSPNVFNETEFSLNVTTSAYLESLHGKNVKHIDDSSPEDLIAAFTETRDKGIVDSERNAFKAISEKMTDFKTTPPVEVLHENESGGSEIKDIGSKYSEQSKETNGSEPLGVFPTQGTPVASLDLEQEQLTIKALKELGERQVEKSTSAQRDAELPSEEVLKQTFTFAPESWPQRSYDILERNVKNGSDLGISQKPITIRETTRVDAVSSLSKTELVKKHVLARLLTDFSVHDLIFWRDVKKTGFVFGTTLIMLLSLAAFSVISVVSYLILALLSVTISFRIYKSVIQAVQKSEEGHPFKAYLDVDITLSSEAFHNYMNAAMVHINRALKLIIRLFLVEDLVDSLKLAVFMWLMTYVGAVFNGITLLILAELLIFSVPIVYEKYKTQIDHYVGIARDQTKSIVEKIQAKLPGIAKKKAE
UniProt Q99584: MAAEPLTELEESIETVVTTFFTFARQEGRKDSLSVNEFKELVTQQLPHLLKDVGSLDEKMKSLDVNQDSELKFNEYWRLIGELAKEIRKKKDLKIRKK
UniProt Q9H633: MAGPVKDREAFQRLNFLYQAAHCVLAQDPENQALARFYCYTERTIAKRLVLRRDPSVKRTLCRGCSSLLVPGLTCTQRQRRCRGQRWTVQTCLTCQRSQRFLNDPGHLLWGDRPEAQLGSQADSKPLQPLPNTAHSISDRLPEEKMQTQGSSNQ
UniProt Q8N488: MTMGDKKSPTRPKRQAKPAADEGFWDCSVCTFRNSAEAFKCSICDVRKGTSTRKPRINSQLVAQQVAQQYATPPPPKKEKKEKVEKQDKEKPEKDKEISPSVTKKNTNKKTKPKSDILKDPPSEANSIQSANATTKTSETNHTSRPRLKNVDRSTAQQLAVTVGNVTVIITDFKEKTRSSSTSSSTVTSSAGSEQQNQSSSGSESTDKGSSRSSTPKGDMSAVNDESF

Tests used:
Test in all cases: log2 fold change, soluble protein after heating vs DMSO (PISA); higher = thermal stabilisation; K562 lysate, 10 uM; active = over 0.2 and 3.5 SD of the protein, either way, in both replicates (recomputed)
[1] = compound: NCC(=O)Nc1ccc(-n2nc(C(F)(F)F)cc2-c2ccc3c(ccc4ccccc43)c2)cc1
Summary of the method: (§1)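 Log-two fold change in thermal stability relative to solvent controls is reported from duplicates. For each sample, crude K562 extract from dounce-homogenised pellets in PBS pH 7.4 with 1 mM MgCl2, at 1 mg/mL protein, was treated with 10 μM compound for 30 min. Aliquots heated for 3 min across 48°C-58°C were pooled, brought to 0.5% NP-40 at 4°C and cleared at 21,000xg for 90 min. The supernatant was quantified by TMTpro 16plex LC-MS/MS with channel sums equalised.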

vorinostat = compound: O=C(CCCCCCC(=O)Nc1ccccc1)NO [vorinostat]
Summary of the method: as §1

silmitasertib = compound: O=C(O)c1ccc2c(c1)nc(Nc1cccc(Cl)c1)c1ccncc12 [silmitasertib]
Summary of the method: as §1

[2] = compound: O=C1NC(=O)C(c2cnc3ccccn23)=C1c1cn2c3c(cc(F)cc13)CN(C(=O)N1CCCCC1)CC2
Summary of the method: as §1

entospletinib = compound: c1cn2cc(-c3ccc4cn[nH]c4c3)nc(Nc3ccc(N4CCOCC4)cc3)c2n1 [entospletinib]
Summary of the method: as §1

| Target | log2 fold change [1] | log2 fold change (vorinostat) | log2 fold change (silmitasertib) | log2 fold change [2] | log2 fold change (entospletinib) |
| --- | --- | --- | --- | --- | --- |
| S100A4 (UniProt P26447) | inactive: -0.067 | inactive: 0.042 | inactive: -0.057 | inactive: 0.282 | inactive: -0.051 |
| RPS3 (UniProt P23396) | inactive: -0.007 | inactive: 0.005 | inactive: 0.015 | inactive: 0.007 | inactive: 0.003 |
| RUBCN (UniProt Q92622) | inactive: 0.018 | inactive: -0.001 | inactive: 0.009 | inactive: 0.029 | inactive: 0.036 |
| S100A12 (UniProt P80511) | inactive: -0.295 |  |  |  |  |
| RPS3A (UniProt P61247) | inactive: -0.028 | inactive: 0.082 | inactive: 0.003 | inactive: -0.016 | inactive: 0.007 |
| RPS4X (UniProt P62701) | inactive: 0.008 | inactive: 0.106 | inactive: 0.028 | inactive: 0.015 | inactive: 0.016 |
| S100A11 (UniProt P31949) | inactive: -0.085 | inactive: 0.106 | inactive: -0.057 | inactive: 0.046 | inactive: -0.045 |
| RTN4 (UniProt Q9NQC3) | inactive: 0.048 | inactive: 0.133 | inactive: -0.036 | inactive: 0.002 | inactive: 0.009 |
| RPLP0P6 (UniProt Q8NHW5) | inactive: 0.009 | inactive: 0.123 | inactive: 0.004 | inactive: -0.003 | inactive: 0.017 |
| RTF1 (UniProt Q92541) | inactive: -0.008 | inactive: -0.044 | inactive: 0.005 | inactive: -0.054 | inactive: -0.015 |
| RRM2 isoform 2 (UniProt P31350) | inactive: -0.008 | inactive: 0.066 | inactive: -0.009 | inactive: -0.025 | inactive: 0.047 |
| RRAGC (UniProt Q9HB90) | inactive: 0.027 | inactive: 0.088 | inactive: 0.012 | inactive: -0.015 | inactive: 0.019 |
| RSRC2 (UniProt Q7L4I2) | inactive: 0.017 | inactive: 0.098 | inactive: 0.011 | inactive: -0.072 | inactive: 0.001 |
| RPS5 (UniProt P46782) | inactive: 0 | inactive: -0.009 | inactive: 0.019 | inactive: 0.051 | inactive: 0.045 |
| RRAS (UniProt P10301) | inactive: -0.044 | inactive: 0.062 | inactive: 0.004 | inactive: -0.036 | inactive: -0.013 |
| RUFY3 isoform 3 (UniProt Q7L099) | inactive: 0.01 | inactive: 0.002 | inactive: 0.016 | inactive: -0.009 | inactive: -0.009 |
| RPP14 (UniProt O95059) | inactive: 0.043 | inactive: 0.047 | inactive: -0.037 | inactive: -0.058 | inactive: 0.039 |
| RRAS2 (UniProt P62070) | inactive: 0 | inactive: 0.029 | inactive: -0.005 | inactive: -0.011 | inactive: -0.008 |
| RPL39P5 (UniProt Q59GN2) | inactive: 0.003 | inactive: 0.181 | inactive: -0.019 | inactive: -0.006 | inactive: -0.013 |
| RSU1 (UniProt Q15404) | inactive: 0.018 | inactive: 0.15 | inactive: 0 | inactive: 0.034 | inactive: 0.003 |
| RPUSD4 (UniProt Q96CM3) | inactive: -0.06 | inactive: 0.046 | inactive: -0.018 | inactive: -0.022 |  |
| RTL10 (UniProt Q7L3V2) | inactive: 0.044 | inactive: -0.195 | inactive: -0.058 | inactive: 0.034 | inactive: -0.073 |
| RUSC2 (UniProt Q8N2Y8) | inactive: -0.14 | inactive: -0.122 | inactive: 0.107 |  |  |
| RPL37 (UniProt P61927) | inactive: 0.059 | inactive: 0.065 | inactive: -0.001 | inactive: 0.051 | inactive: 0.012 |
| RPLP0 (UniProt P05388) | inactive: 0.013 | inactive: 0.131 | inactive: -0.01 | inactive: 0.02 | inactive: 0.044 |
| RSRC1 (UniProt Q96IZ7) | inactive: 0.034 | inactive: 0.147 | inactive: 0.014 | inactive: 0.006 | inactive: 0.02 |
| RPRD2 (UniProt Q5VT52) | inactive: 0.048 | inactive: -0.133 | inactive: 0 | inactive: 0.02 | inactive: -0.006 |
| RPS26P11 (UniProt Q5JNZ5) | inactive: -0.026 | inactive: 0.114 | inactive: 0.049 | inactive: -0.113 | inactive: -0.035 |

| Target | log2 fold change [1] | log2 fold change (vorinostat) | log2 fold change (silmitasertib) | log2 fold change [2] | log2 fold change (entospletinib) |
| --- | --- | --- | --- | --- | --- |
| RPS29 (UniProt P62273) | inactive: -0.105 | inactive: 0.145 | inactive: -0.03 | inactive: 0.205 | inactive: -0.085 |
| RPS27A (UniProt P62979) | inactive: 0.054 | inactive: -0.188 | inactive: 0.009 | inactive: 0.025 | inactive: 0 |
| RRBP1 (UniProt Q9P2E9) | inactive: 0.003 | inactive: 0.07 | inactive: 0.015 | inactive: 0.034 | inactive: -0.002 |
| RPS20 isoform 2 (UniProt P60866) | inactive: -0.019 | inactive: 0.022 | inactive: 0.021 | inactive: -0.034 | inactive: -0.005 |
| RUFY1 (UniProt Q96T51) | inactive: 0.04 | inactive: -0.054 | inactive: 0.011 | inactive: -0.001 | inactive: 0.008 |
| RSBN1 (UniProt Q5VWQ0) | inactive: 0.028 | inactive: -0.097 | inactive: 0.039 | inactive: 0.009 | inactive: 0.004 |
| RPS26 (UniProt P62854) | inactive: 0.014 | inactive: 0.043 | inactive: -0.06 | inactive: -0.019 | inactive: 0.009 |
| RTF2 (UniProt Q9BY42) | inactive: 0.048 | inactive: -0.017 | inactive: 0.023 | inactive: 0 | inactive: 0.007 |
| RTL8C (UniProt A6ZKI3) | inactive: 0 | inactive: 0.032 | inactive: -0.06 | inactive: 0.026 | inactive: 0.025 |
| RWDD4 (UniProt Q6NW29) | inactive: -0.059 | inactive: 0.076 | inactive: 0.032 | inactive: 0.057 | inactive: 0.014 |
| RPS6KA5 (UniProt O75582) | inactive: -0.025 | inactive: -0.189 | inactive: 0.034 | inactive: -0.303 | inactive: -0.007 |
| S100A2 (UniProt P29034) | inactive: 0.362 | inactive: 0.167 | inactive: -0.017 | inactive: 0.124 | inactive: -0.06 |
| RTN3 (UniProt O95197) | inactive: 0.036 | inactive: 0.128 | inactive: 0.011 | inactive: 0.051 | inactive: 0.013 |
| S100A13 (UniProt Q99584) | inactive: 0.012 | inactive: 0.133 | inactive: -0.029 | inactive: -0.027 | inactive: 0.008 |
| RPP21 isoform 4 (UniProt Q9H633) | inactive: 0.138 | inactive: 0.001 | inactive: -0.013 | inactive: 0.045 | inactive: 0.096 |
| RPN1 (UniProt P04843) | inactive: 0.016 | inactive: 0.08 | inactive: -0.01 | inactive: -0.001 | inactive: -0.001 |
| RPTOR (UniProt Q8N122) | inactive: 0.002 | active: -0.337 | inactive: 0.048 | inactive: 0.012 | inactive: -0.01 |
| RYBP (UniProt Q8N488) | inactive: -0.026 | inactive: -0.004 | inactive: 0.049 | inactive: 0.031 | inactive: -0.091 |
| RPS19 (UniProt P39019) | inactive: 0.013 | inactive: 0.092 | inactive: 0.021 | inactive: -0.006 | inactive: 0.025 |
| RPL8 (UniProt P62917) | inactive: -0.041 | inactive: 0.12 | inactive: 0 | inactive: 0.089 | inactive: -0.006 |
| RPS17 (UniProt P08708) | inactive: 0.02 | inactive: 0.12 | inactive: 0.003 | inactive: -0.009 | inactive: -0.002 |
| RRP9 (UniProt O43818) | inactive: 0.055 | inactive: 0.144 | inactive: 0.065 | inactive: 0.002 | inactive: 0.12 |
| RSL1D1 (UniProt O76021) | inactive: -0.011 | inactive: 0.049 | inactive: 0 | inactive: 0.037 | inactive: 0.013 |
| RPS23 (UniProt P62266) | inactive: 0.023 | inactive: 0.136 | inactive: -0.004 | inactive: 0.028 | inactive: 0.05 |
| RPRD1B (UniProt Q9NQG5) | inactive: -0.028 | inactive: -0.011 | inactive: 0.047 | inactive: -0.04 | inactive: 0.014 |
| RUVBL1 (UniProt Q9Y265) | inactive: 0.017 | inactive: 0.092 | inactive: -0.019 | inactive: 0.037 | inactive: 0.003 |
| RRP12 (UniProt Q5JTH9) | inactive: -0.028 | inactive: 0.016 | inactive: -0.007 | inactive: 0.023 | inactive: 0.017 |

Rewritten comma-delimited: part of the list above
Target,log2 fold change [1],log2 fold change (vorinostat),log2 fold change (silmitasertib),log2 fold change [2],log2 fold change (entospletinib)
RPL8 (UniProt P62917),inactive: -0.041,inactive: 0.12,inactive: 0,inactive: 0.089,inactive: -0.006
RPS17 (UniProt P08708),inactive: 0.02,inactive: 0.12,inactive: 0.003,inactive: -0.009,inactive: -0.002
RRP9 (UniProt O43818),inactive: 0.055,inactive: 0.144,inactive: 0.065,inactive: 0.002,inactive: 0.12
RSL1D1 (UniProt O76021),inactive: -0.011,inactive: 0.049,inactive: 0,inactive: 0.037,inactive: 0.013
